# Patent publication US20060263805A1, “Diagnosing and treating potassium channel defects” (priority 2005, published 2006)
# For at least one compound, name, drawing or mass did not settle the structure.
# Test system: patient with atrial fibrillation
# Type: in vivo, human
structure (smiles),measurement,value
CCCNCC(O)COc1ccccc1C(=O)CCc1ccccc1 (stereo not shown) [propafenone],response of atrial fibrillation to antiarrhythmic medical therapy,refractory and/or intolerant
